# The list shows a part of the results.
# How the values were obtained:
# Assay in all cases: glycan array binding signal (z-score within array); higher = stronger binding
# Conditions in all cases: glycan notation: IUPAC condensed, linker removed
# [1] = target: Fuc(a1-2)[GalNAc(b1-3)]Gal
# In short: (§1)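 Columns mapping to the same glycan were averaged after glycan names were converted to IUPAC-condensed notation. The data come from 3228 arrays in the Consortium for Functional Glycomics database, limited to those with an available protein sequence. Binding is reported as a within-array Z-score averaged across arrays of one protein sequence and across linkers.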
# Fuc(a1-3)GlcNAc = target: Fuc(a1-3)GlcNAc
# In short: as §1
# [2] = target: Fuc(a1-3)[Gal(b1-4)]Glc6S
# In short: as §1
# [3] = target: Fuc(a1-3)[Gal(b1-4)]GlcNAc
# In short: as §1
# [4] = target: Fuc(a1-3)[Gal(b1-4)]GlcNAc(b1-2)Man
# In short: as §1
# [5] = target: Fuc(a1-3)[Gal(b1-4)]GlcNAc(b1-2)Man(a1-3)[Fuc(a1-3)[Gal(b1-4)]GlcNAc(b1-2)Man(a1-6)]Man(b1-4)GlcNAc(b1-4)GlcNAc
# In short: as §1
# [6] = target: Fuc(a1-3)[Gal(b1-4)]GlcNAc(b1-2)Man(a1-3)[Fuc(a1-3)[Gal(b1-4)]GlcNAc(b1-2)Man(a1-6)]Man(b1-4)GlcNAc(b1-4)[Fuc(a1-6)]GlcNAc
# In short: as §1
# [7] = target: Fuc(a1-3)[Gal(b1-4)]GlcNAc(b1-3)Gal(b1-3)[Fuc(a1-4)]GlcNAc
# In short: as §1
# [8] = target: Fuc(a1-3)[Gal(b1-4)]GlcNAc(b1-3)Gal(b1-4)[Fuc(a1-3)]GlcNAc
# In short: as §1
# [9] = target: Fuc(a1-3)[Gal(b1-4)]GlcNAc(b1-3)Gal(b1-4)[Fuc(a1-3)]GlcNAc(b1-3)Gal(b1-4)[Fuc(a1-3)]GlcNAc
# In short: as §1
# [10] = target: Fuc(a1-3)[Gal(b1-4)]GlcNAc(b1-3)GalNAc
# In short: as §1
# [11] = target: Fuc(a1-3)[Gal(b1-4)]GlcNAc(b1-6)GalNAc
# In short: as §1
# [12] = target: Fuc(a1-3)[Gal(b1-4)]GlcNAc(b1-6)[Gal(b1-3)GlcNAc(b1-3)]Gal(b1-4)Glc
# In short: as §1
# [13] = target: Fuc(a1-3)[Gal(b1-4)]GlcNAc6S
# In short: as §1
# [14] = target: Fuc(a1-3)[Gal3S(b1-4)]Glc
# In short: as §1
# [15] = target: Fuc(a1-3)[Gal3S(b1-4)]GlcNAc
# In short: as §1
# [16] = target: Fuc(a1-3)[Gal3S(b1-4)]GlcNAc6S
# In short: as §1
# [17] = target: Fuc(a1-3)[GalNAc(b1-4)]GlcNAc
# In short: as §1
# [18] = target: Fuc(a1-3)[GalNAc(b1-4)]GlcNAc6S
# In short: as §1
# Fuc(a1-4)GlcNAc = target: Fuc(a1-4)GlcNAc
# In short: as §1
# Fuc(b1-3)GlcNAc = target: Fuc(b1-3)GlcNAc
# In short: as §1
# Gal(a1-2)Gal = target: Gal(a1-2)Gal
# In short: as §1
# Gal(a1-3)Gal = target: Gal(a1-3)Gal
# In short: as §1
# Gal(a1-3)Gal(b1-3)GlcNAc = target: Gal(a1-3)Gal(b1-3)GlcNAc
# In short: as §1
# [19] = target: Gal(a1-3)Gal(b1-3)GlcNAc(b1-2)Man
# In short: as §1
# [20] = target: Gal(a1-3)Gal(b1-3)GlcNAc(b1-2)Man(a1-3)[Gal(a1-3)Gal(b1-3)GlcNAc(b1-2)Man(a1-6)]Man(b1-4)GlcNAc(b1-4)GlcNAc
# In short: as §1
# [21] = target: Gal(a1-3)Gal(b1-3)GlcNAc(b1-3)GalNAc
# In short: as §1
# [22] = target: Gal(a1-3)Gal(b1-3)GlcNAc(b1-6)GalNAc
# In short: as §1
# [23] = target: Gal(a1-3)Gal(b1-3)[Fuc(a1-4)]GlcNAc(b1-2)Man(a1-3)[Gal(a1-3)Gal(b1-3)[Fuc(a1-4)]GlcNAc(b1-2)Man(a1-6)]Man(b1-4)GlcNAc(b1-4)GlcNAc
# In short: as §1
# Gal(a1-3)Gal(b1-4)Glc = target: Gal(a1-3)Gal(b1-4)Glc
# In short: as §1
binder,measurement,setting,value
LlpA (Burkholderia cenocepacia) (protein) MGSSHHHHHHSSGLVPRGSHKILGSNETLSAGNVVYSDNGQYHLAMQTDGNLVVYGPTGAVWQSQTSGSGGNRAVMQGDGNLVIYRADNTAAWSSKTAHPGAFLAVQDDGNVVIYWPRPAWASNTSDPATQQSAESKYLASGSTMSAGQTVTVAQYMLVFQADGNLVLYKNGGNPIWSTGTQGKGATYAVMQSDGNFVIYAGSTALWSTKTNGANGAQLVLQSDGNLVIYAPTAAWSTKFGLVTAPTSTSTSNNGPGSGICVGVCPPHPLNGNPFSPVGVGTTGLGFPTPGYPGAAF,glycan array binding signal (z-score),[1],0.18
same,glycan array binding signal (z-score),Fuc(a1-3)GlcNAc,0.988
same,glycan array binding signal (z-score),[2],1.04
same,glycan array binding signal (z-score),[3],0.125
same,glycan array binding signal (z-score),[4],0.528
same,glycan array binding signal (z-score),[5],1.04
same,glycan array binding signal (z-score),[6],2.08
same,glycan array binding signal (z-score),[7],-0.813
same,glycan array binding signal (z-score),[8],0.798
same,glycan array binding signal (z-score),[9],-0.408
same,glycan array binding signal (z-score),[10],0.159
same,glycan array binding signal (z-score),[11],0.339
same,glycan array binding signal (z-score),[12],-0.198
same,glycan array binding signal (z-score),[13],1.66
same,glycan array binding signal (z-score),[14],1.2
same,glycan array binding signal (z-score),[15],0.681
same,glycan array binding signal (z-score),[16],0.228
same,glycan array binding signal (z-score),[17],0.5
same,glycan array binding signal (z-score),[18],0.011
same,glycan array binding signal (z-score),Fuc(a1-4)GlcNAc,1.59
same,glycan array binding signal (z-score),Fuc(b1-3)GlcNAc,-0.204
same,glycan array binding signal (z-score),Gal(a1-2)Gal,-0.358
same,glycan array binding signal (z-score),Gal(a1-3)Gal,-0.213
same,glycan array binding signal (z-score),Gal(a1-3)Gal(b1-3)GlcNAc,-0.246
same,glycan array binding signal (z-score),[19],0.249
same,glycan array binding signal (z-score),[20],0.408
same,glycan array binding signal (z-score),[21],-1.16
same,glycan array binding signal (z-score),[22],0.173
same,glycan array binding signal (z-score),[23],1.1
same,glycan array binding signal (z-score),Gal(a1-3)Gal(b1-4)Glc,-0.106

# Pulled one by one from the entries so far (2):
binder,measurement,setting,value
LlpA (Burkholderia cenocepacia) (protein) MGSSHHHHHHSSGLVPRGSHKILGSNETLSAGNVVYSDNGQYHLAMQTDGNLVVYGPTGAVWQSQTSGSGGNRAVMQGDGNLVIYRADNTAAWSSKTAHPGAFLAVQDDGNVVIYWPRPAWASNTSDPATQQSAESKYLASGSTMSAGQTVTVAQYMLVFQADGNLVLYKNGGNPIWSTGTQGKGATYAVMQSDGNFVIYAGSTALWSTKTNGANGAQLVLQSDGNLVIYAPTAAWSTKFGLVTAPTSTSTSNNGPGSGICVGVCPPHPLNGNPFSPVGVGTTGLGFPTPGYPGAAF,glycan array binding signal (z-score),[17],0.5
same,glycan array binding signal (z-score),Fuc(a1-4)GlcNAc,1.59
